Laboratory results: paper PMC9596381
Results are given in words; binding and its absence hold for the method and conditions named. Some binding calls cover weakened binding; strength is not graded here. Sequences can lack the tags named with a protein.

By UniProt entry, the sequences of proteins in these tests, tags left out. Residues count along the entry.
UniProt Q6UXZ4, residues 33-379: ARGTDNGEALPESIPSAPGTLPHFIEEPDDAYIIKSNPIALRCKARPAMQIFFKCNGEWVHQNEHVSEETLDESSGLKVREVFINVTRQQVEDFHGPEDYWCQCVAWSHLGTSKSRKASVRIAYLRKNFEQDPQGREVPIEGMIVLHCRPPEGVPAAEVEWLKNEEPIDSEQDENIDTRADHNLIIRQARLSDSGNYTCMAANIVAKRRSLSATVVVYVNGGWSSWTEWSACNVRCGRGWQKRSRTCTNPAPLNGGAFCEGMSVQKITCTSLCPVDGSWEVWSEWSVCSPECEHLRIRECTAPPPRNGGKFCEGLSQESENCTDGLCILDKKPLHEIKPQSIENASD

B1: FLRT2 Fc-tagged ectodomain prey (Fc fusion, UniProt O43155 36-541)
chain: CPSVCRCDRNFVYCNERSLTSVPLGIPEGVTVLYLHNNQINNAGFPAELHNVQSVHTVYLYGNQLDEFPMNLPKNVRVLHLQENNIQTISRAALAQLLKLEELHLDDNSISTVGVEDGAFREAISLKLLFLSKNHLSSVPVGLPVDLQELRVDENRIAVISDMAFQNLTSLERLIVDGNLLTNKGIAEGTFSHLTKLKEFSIVRNSLSHPPPDLPGTHLIRLYLQDNQINHIPLTAFSNLRKLERLDISNNQLRMLTQGVFDNLSNLKQLTARNNPWFCDCSIKWVTEWLKYIPSSLNVRGFMCQGPEQVRGMAVRELNMNLLSCPTTTPGLPLFTPAPSTASPTTQPPTLSIPNPSRSYTPPTPTTSKLPTIPDWDGRERVTPPISERIQLSIHFVNDTSIQVSWLSLFTVMAYKLTWVKMGHSLVGGIVQERIVSGEKQHLSLVNLEPRSTYRICLVPLDAFNYRAVEDTICSEATTHASYLNNGSNTASSHEQTTSHSMGSPF
B2: FLRT3 Fc-tagged ectodomain prey (Fc fusion, UniProt Q9NZU0 29-528)
chain: KSCPSVCRCDAGFIYCNDRFLTSIPTGIPEDATTLYLQNNQINNAGIPSDLKNLLKVERIYLYHNSLDEFPTNLPKYVKELHLQENNIRTITYDSLSKIPYLEELHLDDNSVSAVSIEEGAFRDSNYLRLLFLSRNHLSTIPWGLPRTIEELRLDDNRISTISSPSLQGLTSLKRLVLDGNLLNNHGLGDKVFFNLVNLTELSLVRNSLTAAPVNLPGTNLRKLYLQDNHINRVPPNAFSYLRQLYRLDMSNNNLSNLPQGIFDDLDNITQLILRNNPWYCGCKMKWVRDWLQSLPVKVNVRGLMCQAPEKVRGMAIKDLNAELFDCKDSGIVSTIQITTAIPNTVYPAQGQWPAPVTKQPDIKNPKLTKDHQTTGSPSRKTITITVKSVTSDTIHISWKLALPMTALRLSWLKLGHSPAFGSITETIVTGERSEYLVTALEPDSPYKVCMVPMETSNLYLFDETPVCIETETAPLRMYNPTTTLNREQEKEPYKNPNLP

Biological target: human Unc5D (residues 33-379) alkaline phosphatase fusion (Unc5D-AP) (human) (UniProt Q6UXZ4)
Test: ELISA; Unc5D-AP conditioned medium captured by anti-AP in 96-well plates as bait; culture medium of 95 ecto-Fc prey proteins added with anti-human IgG1-HRP; 4 h at room temperature; absorbance at 650 nm; in duplicate

| Binder | binding |
| --- | --- |
| B1 | binds |
| B2 | binds |
